# Results are given in words; binding and its absence hold for the method and conditions named. In cells and extracts the contact can be indirect. Here binding means that the protein was enriched with, or labelled near, the bait; the list need not be complete. No binding means not detected with the bait.
# By UniProt entry, the sequences of proteins in these tests, tags left out. Residues count along the entry.
# UniProt P60879: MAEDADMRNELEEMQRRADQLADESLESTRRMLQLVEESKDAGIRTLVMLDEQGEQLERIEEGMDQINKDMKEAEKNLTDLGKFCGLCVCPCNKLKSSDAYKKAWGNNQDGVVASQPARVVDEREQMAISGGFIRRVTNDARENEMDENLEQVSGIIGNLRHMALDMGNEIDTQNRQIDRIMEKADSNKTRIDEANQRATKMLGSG
# UniProt Q61290: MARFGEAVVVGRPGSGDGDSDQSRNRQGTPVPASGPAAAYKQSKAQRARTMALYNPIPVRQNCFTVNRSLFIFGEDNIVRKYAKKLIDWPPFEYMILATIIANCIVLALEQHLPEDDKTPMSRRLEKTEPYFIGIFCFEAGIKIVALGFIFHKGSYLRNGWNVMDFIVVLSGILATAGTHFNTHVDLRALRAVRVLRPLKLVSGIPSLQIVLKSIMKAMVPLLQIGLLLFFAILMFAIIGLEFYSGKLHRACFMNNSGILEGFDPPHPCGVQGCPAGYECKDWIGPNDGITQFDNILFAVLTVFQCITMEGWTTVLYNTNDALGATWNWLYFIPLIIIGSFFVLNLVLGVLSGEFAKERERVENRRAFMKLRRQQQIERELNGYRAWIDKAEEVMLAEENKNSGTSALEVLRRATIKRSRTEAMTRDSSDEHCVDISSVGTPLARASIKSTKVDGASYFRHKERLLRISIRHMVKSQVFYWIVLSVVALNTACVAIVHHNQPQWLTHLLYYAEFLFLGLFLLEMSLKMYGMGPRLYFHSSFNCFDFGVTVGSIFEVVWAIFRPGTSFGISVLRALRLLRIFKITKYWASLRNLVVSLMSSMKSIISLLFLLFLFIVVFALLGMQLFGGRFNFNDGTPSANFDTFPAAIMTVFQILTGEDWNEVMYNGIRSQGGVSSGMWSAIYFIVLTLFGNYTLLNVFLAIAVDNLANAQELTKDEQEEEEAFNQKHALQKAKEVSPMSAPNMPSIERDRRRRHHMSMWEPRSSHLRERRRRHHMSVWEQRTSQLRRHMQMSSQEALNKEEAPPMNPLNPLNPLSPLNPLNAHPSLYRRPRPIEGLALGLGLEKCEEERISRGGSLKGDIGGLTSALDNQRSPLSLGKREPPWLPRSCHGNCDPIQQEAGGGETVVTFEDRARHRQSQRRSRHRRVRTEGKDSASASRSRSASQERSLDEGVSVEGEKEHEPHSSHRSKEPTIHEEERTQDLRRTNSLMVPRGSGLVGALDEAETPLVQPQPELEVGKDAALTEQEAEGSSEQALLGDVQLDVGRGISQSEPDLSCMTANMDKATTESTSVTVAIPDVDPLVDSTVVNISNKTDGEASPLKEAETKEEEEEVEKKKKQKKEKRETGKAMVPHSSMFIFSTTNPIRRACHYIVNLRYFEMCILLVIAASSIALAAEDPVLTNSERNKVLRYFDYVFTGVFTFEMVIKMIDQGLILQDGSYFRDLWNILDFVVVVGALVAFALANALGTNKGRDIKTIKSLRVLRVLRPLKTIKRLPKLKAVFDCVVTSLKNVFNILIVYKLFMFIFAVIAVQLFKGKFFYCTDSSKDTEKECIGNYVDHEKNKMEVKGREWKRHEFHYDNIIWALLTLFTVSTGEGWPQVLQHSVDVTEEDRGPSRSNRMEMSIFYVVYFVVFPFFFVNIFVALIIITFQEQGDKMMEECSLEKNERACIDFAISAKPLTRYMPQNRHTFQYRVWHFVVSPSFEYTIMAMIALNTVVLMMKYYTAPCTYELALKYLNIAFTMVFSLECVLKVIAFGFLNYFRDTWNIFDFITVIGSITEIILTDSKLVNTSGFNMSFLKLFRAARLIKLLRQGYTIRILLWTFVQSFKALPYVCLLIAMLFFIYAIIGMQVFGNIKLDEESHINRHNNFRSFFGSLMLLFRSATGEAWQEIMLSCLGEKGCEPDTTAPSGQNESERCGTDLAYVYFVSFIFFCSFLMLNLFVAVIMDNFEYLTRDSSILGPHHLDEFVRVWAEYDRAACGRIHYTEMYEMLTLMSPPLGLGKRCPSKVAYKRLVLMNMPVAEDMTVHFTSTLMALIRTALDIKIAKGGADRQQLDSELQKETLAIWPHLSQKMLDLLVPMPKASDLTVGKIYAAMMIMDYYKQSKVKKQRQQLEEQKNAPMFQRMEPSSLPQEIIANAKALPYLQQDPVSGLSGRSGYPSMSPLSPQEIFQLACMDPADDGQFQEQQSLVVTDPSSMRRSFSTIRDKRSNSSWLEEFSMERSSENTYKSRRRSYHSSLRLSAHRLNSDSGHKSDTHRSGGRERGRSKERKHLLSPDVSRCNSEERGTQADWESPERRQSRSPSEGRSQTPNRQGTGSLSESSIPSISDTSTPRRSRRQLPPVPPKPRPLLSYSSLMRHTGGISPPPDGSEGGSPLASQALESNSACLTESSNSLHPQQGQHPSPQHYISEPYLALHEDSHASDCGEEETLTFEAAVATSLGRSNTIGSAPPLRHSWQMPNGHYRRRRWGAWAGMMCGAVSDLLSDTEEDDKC
# UniProt Q7TMB8: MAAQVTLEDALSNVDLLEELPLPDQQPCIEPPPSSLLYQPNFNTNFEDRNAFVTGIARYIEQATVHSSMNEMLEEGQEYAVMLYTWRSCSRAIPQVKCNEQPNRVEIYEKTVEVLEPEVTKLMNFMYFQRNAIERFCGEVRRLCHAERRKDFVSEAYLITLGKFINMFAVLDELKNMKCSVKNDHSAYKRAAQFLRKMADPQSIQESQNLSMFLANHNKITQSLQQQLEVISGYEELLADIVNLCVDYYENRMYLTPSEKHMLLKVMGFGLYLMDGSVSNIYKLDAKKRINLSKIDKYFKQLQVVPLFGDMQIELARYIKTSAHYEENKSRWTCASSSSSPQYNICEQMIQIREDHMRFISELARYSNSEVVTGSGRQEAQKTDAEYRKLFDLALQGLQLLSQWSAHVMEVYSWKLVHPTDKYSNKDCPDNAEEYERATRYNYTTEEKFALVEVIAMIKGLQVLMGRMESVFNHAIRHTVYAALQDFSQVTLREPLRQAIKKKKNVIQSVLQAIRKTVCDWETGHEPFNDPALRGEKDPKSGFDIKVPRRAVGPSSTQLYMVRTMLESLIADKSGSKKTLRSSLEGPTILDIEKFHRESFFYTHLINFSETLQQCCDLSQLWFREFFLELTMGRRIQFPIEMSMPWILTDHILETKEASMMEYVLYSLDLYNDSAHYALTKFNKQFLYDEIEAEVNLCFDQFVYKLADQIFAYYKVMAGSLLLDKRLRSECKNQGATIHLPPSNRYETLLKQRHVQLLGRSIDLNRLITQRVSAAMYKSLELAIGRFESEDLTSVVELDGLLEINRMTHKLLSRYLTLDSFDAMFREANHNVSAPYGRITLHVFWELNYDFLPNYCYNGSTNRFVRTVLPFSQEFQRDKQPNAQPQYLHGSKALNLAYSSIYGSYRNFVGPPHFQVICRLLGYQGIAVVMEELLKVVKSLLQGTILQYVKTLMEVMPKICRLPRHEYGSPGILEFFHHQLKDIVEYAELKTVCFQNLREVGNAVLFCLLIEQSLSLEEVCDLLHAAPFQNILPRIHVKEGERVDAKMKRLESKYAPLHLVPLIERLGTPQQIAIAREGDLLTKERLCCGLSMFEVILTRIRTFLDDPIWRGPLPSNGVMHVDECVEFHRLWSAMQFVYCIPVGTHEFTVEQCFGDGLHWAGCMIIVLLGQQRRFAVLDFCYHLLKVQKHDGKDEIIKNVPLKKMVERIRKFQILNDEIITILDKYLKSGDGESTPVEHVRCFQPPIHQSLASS
# UniProt Q3UHJ0: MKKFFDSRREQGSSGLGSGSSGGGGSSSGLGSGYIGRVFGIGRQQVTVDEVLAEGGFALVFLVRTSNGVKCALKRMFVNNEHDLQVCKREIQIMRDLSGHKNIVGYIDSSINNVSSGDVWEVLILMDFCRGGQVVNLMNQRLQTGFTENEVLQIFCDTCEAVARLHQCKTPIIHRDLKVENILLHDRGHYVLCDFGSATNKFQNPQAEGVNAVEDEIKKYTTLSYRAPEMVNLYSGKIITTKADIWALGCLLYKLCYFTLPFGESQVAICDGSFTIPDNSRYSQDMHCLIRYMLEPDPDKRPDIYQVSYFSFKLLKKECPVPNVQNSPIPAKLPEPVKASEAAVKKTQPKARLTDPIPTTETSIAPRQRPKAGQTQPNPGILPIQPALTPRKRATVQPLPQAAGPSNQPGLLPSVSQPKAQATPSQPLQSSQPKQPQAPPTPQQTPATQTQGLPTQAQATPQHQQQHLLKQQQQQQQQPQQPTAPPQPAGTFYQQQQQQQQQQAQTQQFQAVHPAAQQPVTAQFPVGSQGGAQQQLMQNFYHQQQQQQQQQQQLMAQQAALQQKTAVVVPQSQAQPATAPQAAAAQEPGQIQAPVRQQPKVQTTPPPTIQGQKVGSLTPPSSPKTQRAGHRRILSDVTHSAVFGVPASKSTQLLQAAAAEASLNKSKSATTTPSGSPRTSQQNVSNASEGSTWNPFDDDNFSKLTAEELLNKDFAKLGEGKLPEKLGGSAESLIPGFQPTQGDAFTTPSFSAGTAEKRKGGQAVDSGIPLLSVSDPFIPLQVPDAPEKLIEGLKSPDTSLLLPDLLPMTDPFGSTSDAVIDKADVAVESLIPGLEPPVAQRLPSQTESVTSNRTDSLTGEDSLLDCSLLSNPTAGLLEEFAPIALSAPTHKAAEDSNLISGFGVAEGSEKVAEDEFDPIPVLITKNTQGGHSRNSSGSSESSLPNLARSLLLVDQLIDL
# UniProt Q14BI2, residues 19-872: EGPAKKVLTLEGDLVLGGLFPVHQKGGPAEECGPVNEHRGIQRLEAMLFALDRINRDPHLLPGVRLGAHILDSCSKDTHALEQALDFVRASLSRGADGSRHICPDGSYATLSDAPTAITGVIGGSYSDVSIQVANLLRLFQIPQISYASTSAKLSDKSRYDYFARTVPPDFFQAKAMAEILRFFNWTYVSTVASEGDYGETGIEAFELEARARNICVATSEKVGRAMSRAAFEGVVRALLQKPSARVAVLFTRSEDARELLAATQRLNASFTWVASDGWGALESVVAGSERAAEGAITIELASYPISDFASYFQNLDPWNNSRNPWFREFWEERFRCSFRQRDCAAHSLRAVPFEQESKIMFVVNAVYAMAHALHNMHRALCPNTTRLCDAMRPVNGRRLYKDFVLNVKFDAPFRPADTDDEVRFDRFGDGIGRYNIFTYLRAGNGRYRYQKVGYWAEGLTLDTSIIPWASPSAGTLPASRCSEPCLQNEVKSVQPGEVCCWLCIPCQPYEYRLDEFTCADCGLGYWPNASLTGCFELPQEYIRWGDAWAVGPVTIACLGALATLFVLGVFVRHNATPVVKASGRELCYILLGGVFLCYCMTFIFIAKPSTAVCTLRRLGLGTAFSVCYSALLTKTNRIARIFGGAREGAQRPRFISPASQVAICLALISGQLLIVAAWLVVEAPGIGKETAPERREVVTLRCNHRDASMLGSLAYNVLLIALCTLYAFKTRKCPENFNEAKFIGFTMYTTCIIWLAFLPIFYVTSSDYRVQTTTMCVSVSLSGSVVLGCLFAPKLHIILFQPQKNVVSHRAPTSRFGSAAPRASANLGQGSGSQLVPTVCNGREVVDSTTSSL
# UniProt Q6P9R2: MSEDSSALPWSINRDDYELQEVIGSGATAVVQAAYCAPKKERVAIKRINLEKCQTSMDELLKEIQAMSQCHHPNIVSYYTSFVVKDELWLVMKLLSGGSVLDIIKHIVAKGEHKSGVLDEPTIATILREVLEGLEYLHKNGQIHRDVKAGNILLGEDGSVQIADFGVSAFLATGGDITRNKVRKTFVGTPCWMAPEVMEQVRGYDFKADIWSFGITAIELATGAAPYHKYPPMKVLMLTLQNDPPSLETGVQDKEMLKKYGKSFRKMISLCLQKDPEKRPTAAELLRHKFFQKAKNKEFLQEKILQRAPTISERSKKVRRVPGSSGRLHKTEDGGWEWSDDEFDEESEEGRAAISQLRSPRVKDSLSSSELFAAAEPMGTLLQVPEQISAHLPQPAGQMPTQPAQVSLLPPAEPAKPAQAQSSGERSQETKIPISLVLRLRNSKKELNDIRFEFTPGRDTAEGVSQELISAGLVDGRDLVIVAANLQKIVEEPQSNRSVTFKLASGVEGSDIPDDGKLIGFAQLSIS
# B1: GABBR2 (receptor, UniProt Q80T41 41-940)
# chain: WARGAPRPPPSSPPLSIMGLMPLTKEVAKGSIGRGVLPAVELAIEQIRNESLLRPYFLDLRLYDTECDNAKGLKAFYDAIKYGPNHLMVFGGVCPSVTSIIAESLQGWNLVQLSFAATTPVLADKKKYPYFFRTVPSDNAVNPAILKLLKHFRWRRVGTLTQDVQRFSEVRNDLTGVLYGEDIEISDTESFSNDPCTSVKKLKGNDVRIILGQFDQNMAAKVFCCAFEESMFGSKYQWIIPGWYEPAWWEQVHVEANSSRCLRRSLLAAMEGYIGVDFEPLSSKQIKTISGKTPQQYEREYNSKRSGVGPSKFHGYAYDGIWVIAKTLQRAMETLHASSRHQRIQDFNYTDHTLGRIILNAMNETNFFGVTGQVVFRNGERMGTIKFTQFQDSREVKVGEYNAVADTLEIINDTIRFQGSEPPKDKTIILEQLRKISLPLYSILSALTILGMIMASAFLFFNIKNRNQKLIKMSSPYMNNLIILGGMLSYASIFLFGLDGSFVSEKTFETLCTVRTWILTVGYTTAFGAMFAKTWRVHAIFKNVKMKKKIIKDQKLLVIVGGMLLIDLCILICWQAVDPLRRTVERYSMEPDPAGRDISIRPLLEHCENTHMTIWLGIVYAYKGLLMLFGCFLAWETRNVSIPALNDSKYIGMSVYNVGIMCIIGAAVSFLTRDQPNVQFCIVALVIIFCSTITLCLVFVPKLITLRTNPDAATQNRRFQFTQNQKKEDSKTSTSVTSVNQASTSRLEGLQSENHRLRMKITELDKDLEEVTMQLQDTPEKTTYIKQNHYQELNDILSLGNFTESTDGGKAILKNHLDQNPQLQWNTTEPSRTCKDPIEDINSPEHIQRRLSLQLPILHHAYLPSIGGVDASCVSPCVSPTASPRHRHVPPSFRVMVSGL
# Biological target: T1, K+/Cl- co-transporter KCC2 (mouse (endogenous in mouse forebrain)) (UniProt Q91V14)
# T1 sequence: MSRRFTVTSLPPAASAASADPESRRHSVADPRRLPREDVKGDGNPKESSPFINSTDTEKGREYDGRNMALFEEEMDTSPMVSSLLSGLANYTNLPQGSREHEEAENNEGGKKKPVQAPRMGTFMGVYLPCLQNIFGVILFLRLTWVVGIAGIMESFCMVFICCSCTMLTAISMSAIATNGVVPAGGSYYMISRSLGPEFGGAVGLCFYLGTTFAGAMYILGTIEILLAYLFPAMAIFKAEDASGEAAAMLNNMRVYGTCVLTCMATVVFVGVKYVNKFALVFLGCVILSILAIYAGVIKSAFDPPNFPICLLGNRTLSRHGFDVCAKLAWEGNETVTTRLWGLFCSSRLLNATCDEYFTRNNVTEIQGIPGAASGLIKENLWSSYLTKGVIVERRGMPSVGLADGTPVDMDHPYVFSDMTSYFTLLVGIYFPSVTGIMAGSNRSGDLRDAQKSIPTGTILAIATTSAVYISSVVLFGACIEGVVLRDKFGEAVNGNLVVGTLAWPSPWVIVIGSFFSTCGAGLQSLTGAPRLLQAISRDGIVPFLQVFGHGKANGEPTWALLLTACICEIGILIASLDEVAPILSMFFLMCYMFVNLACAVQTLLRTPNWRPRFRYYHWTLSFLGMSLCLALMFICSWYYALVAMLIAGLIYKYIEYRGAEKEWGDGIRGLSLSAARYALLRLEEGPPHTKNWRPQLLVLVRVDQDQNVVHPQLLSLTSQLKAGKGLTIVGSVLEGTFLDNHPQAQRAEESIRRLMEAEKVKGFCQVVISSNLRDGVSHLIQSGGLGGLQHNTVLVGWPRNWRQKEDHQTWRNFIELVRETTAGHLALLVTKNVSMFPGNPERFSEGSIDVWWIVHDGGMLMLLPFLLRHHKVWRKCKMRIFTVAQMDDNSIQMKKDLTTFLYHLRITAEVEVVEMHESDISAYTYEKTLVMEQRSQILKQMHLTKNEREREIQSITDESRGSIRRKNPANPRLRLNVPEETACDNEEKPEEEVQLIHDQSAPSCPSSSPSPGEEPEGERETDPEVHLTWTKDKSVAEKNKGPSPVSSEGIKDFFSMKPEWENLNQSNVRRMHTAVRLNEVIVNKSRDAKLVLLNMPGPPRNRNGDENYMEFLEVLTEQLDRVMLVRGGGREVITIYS
# Experiment: affinity purification with mass spectrometry
molecule,measurement,value
SNAP25 (from UniProt P60879 1-206),binding,binds
SHANK3 (from UniProt Q4ACU6 1-1730),binding,binds
SPTBN1 (from UniProt Q62261 1-2363),binding,binds
SPTAN1 (from UniProt P16546 1-2472),binding,binds
DLG1 (from UniProt Q811D0 1-905),binding,binds
CACNA1E (from UniProt Q61290 1-2272),binding,binds
NLGN3 (from UniProt Q8BYM5 35-825),binding,binds
CYFIP1 (from UniProt Q7TMB8 1-1253),binding,binds
PKC (mouse (endogenous in mouse forebrain)) (enzyme),binding,no binding
AAK1 (from UniProt Q3UHJ0 1-959),binding,binds
WNK (mouse (endogenous in mouse forebrain)) (enzyme),binding,no binding
CYFIP2 (from UniProt Q5SQX6 1-1253),binding,binds
GRM2 (from UniProt Q14BI2 19-872) (receptor),binding,binds
ITPR1 (from UniProt P11881 1-2749),binding,binds
OSR (from UniProt Q6P9R2 1-527) (enzyme),binding,no binding
ATP2A2 (from UniProt O55143 1-1044),binding,binds
GRM3 (from UniProt Q9QYS2 23-879) (receptor),binding,binds
EPB41L1 (from UniProt Q9Z2H5 1-879),binding,no binding
ANK2 (from UniProt Q8C8R3 1-3898),binding,binds
B1,binding,binds

# Reference: doi:10.1101/2020.03.02.973859
